Data: paper PMC7862700
The list shows a part of the results, in another mix than the full data. At the low end of the ranking, values are background and their order means little.

Molecular target: SPI1 (UniProt P17947)
Test: DAPPL (digital affinity profiling via proximity ligation, sequencing)
Settings: 10 mM Tris-HCl pH 7.5, 50 mM NaCl, 1 mM DTT, 4% glycerol, room temperature, 30 min; GST-TFs on glutathione beads, 16-mer random dsDNA library, 0.1% …; high values mean tight binding; double strand, one strand shown; scale: fold enrichment (6-mer frequency, TF over GST control)

Sequence	binding signal
TAAGCA	0.986
GCTTAA	0.928
CACCGC	1.01
GTCTGG	0.916
GAAAGG	0.91
CCTCAG	1.17
TTCGGG	0.94
AGAATC	0.938
GCATAC	0.956
TCCAGT	0.688
CGAGAT	0.896
GCAAGC	0.914
CCGGTG	0.952
AGAGAA	0.881
TTAGGA	0.909
CACGCG	1.08
TGATTA	0.985
TTGAGC	0.954
ACGAAA	1.14
GACCCC	0.899

Sequence	binding signal
GAAGGT	0.847
TAGTGC	1.05
CGCGCG	1
CGGCTG	0.932
TGGTGG	0.909
ATTGTG	0.945
AAACTT	1.24
GACGAC	0.976
TCCGAG	0.897
GGATTA	0.845
TCGCAT	0.992
GTACGA	1.05
GGTACA	0.95
ATGGCA	1.21
TCGCTG	0.972
GCACAA	1.05
GCCTGT	0.889
GCGAAC	0.999
CTGAGG	0.814

Taken from above:
binding signal with GCGAAC is entered as 0.999
binding signal with GTACGA is entered as 1.05
